For series [1], the target named is T1, Rai1 (Saccharomyces cerevisiae) (UniProt P53063).
T1 sequence (looked up, limits assumed): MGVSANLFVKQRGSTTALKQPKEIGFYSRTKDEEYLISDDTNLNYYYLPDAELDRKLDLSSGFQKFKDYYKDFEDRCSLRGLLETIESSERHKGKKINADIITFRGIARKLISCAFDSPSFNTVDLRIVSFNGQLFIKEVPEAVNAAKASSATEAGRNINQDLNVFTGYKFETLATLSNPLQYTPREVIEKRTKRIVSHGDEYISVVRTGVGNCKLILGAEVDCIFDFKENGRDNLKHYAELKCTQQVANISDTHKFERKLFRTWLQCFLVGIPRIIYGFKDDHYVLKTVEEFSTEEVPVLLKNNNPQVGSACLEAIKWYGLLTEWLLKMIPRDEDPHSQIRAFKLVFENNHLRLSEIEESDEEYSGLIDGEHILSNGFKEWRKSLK
In words: pull-down. Conditions: FcRAP: 1x lysis buffer, 4 C, 90 min, protein in an extract, label: 3'-biotin, letters put together from the description.

Sequences of proteins named here, by UniProt entry; tags and fusion partners are left off. A change or cut given only in a name is not applied to a line headed by its entry.
UniProt P22147: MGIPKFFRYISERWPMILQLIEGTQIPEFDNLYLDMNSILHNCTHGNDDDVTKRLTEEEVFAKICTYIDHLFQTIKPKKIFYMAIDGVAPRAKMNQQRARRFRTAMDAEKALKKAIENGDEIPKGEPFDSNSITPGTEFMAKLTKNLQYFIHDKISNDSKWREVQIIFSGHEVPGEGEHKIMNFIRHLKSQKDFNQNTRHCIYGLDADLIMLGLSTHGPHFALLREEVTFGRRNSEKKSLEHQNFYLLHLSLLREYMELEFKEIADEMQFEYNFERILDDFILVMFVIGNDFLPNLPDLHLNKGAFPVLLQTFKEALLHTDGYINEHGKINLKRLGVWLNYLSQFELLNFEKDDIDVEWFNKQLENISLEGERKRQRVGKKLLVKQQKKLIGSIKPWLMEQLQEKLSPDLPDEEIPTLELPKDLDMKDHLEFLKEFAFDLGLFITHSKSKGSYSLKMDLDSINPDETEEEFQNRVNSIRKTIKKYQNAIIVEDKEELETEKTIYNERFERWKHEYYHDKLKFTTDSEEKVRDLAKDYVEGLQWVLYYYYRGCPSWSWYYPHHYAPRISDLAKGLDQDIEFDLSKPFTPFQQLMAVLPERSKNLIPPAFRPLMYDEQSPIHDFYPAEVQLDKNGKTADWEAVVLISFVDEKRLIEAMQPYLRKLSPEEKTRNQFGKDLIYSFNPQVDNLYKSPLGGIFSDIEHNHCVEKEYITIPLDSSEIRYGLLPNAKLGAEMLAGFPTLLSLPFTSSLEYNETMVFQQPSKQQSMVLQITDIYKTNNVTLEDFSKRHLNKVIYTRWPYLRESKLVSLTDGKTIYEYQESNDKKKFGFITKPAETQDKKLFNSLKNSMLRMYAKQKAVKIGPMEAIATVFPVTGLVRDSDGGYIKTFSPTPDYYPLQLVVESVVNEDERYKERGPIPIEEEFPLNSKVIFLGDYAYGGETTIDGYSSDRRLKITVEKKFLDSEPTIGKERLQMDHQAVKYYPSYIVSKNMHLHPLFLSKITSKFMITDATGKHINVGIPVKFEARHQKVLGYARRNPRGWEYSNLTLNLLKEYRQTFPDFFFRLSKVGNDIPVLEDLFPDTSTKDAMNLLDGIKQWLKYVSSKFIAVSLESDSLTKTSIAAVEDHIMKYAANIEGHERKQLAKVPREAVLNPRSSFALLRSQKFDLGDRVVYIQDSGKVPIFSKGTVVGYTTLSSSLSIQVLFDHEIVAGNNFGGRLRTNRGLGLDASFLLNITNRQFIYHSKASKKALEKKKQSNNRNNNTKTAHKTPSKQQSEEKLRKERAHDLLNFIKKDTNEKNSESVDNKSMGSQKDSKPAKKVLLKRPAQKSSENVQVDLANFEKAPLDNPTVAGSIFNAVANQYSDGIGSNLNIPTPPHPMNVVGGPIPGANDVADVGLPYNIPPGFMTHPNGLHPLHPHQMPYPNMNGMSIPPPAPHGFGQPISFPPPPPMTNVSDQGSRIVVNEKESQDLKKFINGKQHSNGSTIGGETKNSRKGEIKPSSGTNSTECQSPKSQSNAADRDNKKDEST

In series [2] the target is Xrn1 (Saccharomyces cerevisiae) (UniProt P22147). In words: pull-down. Conditions: WT yeast lysate, MS identification, FcRAP: 1x lysis buffer, 4 C, 90 min, protein in an extract, label: 3'-biotin, letters put together from the description.
For series [3], the target named is T2, Rat1 (Saccharomyces cerevisiae) (UniProt Q02792).
T2 sequence (looked up, limits assumed): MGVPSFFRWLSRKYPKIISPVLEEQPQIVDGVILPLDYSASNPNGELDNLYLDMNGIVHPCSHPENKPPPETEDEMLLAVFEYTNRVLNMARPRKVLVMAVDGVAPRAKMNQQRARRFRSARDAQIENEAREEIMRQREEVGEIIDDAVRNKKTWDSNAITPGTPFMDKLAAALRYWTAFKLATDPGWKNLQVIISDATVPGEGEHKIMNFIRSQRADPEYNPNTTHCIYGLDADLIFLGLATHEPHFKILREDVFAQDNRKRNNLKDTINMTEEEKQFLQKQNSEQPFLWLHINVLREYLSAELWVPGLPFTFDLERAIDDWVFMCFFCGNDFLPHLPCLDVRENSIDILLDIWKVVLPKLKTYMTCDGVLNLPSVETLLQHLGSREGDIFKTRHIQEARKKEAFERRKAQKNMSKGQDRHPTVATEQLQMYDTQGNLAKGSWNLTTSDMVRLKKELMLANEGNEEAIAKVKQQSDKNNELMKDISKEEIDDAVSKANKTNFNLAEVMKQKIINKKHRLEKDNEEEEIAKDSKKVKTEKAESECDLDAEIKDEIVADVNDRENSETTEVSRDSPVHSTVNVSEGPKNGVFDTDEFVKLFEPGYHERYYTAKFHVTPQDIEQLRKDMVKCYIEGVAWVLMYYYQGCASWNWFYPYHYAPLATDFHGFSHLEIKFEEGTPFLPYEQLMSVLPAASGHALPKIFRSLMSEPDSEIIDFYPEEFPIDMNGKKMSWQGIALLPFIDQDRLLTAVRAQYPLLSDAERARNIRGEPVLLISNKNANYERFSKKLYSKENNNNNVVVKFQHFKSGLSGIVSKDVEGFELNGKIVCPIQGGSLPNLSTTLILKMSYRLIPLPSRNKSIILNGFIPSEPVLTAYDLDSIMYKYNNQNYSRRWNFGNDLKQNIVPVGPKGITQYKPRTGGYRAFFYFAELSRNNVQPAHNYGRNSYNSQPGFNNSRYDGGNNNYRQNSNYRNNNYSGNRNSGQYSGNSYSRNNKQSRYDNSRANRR
Kind of series: pull-down. Conditions: FcRAP: 1x lysis buffer, 4 C, 90 min, protein in an extract, label: 3'-biotin, letters put together from the description.

The target of series [4] is T3, Kl Xrn1 (Kluyveromyces lactis) (UniProt Q6CJ09).
T3 sequence (looked up, limits assumed): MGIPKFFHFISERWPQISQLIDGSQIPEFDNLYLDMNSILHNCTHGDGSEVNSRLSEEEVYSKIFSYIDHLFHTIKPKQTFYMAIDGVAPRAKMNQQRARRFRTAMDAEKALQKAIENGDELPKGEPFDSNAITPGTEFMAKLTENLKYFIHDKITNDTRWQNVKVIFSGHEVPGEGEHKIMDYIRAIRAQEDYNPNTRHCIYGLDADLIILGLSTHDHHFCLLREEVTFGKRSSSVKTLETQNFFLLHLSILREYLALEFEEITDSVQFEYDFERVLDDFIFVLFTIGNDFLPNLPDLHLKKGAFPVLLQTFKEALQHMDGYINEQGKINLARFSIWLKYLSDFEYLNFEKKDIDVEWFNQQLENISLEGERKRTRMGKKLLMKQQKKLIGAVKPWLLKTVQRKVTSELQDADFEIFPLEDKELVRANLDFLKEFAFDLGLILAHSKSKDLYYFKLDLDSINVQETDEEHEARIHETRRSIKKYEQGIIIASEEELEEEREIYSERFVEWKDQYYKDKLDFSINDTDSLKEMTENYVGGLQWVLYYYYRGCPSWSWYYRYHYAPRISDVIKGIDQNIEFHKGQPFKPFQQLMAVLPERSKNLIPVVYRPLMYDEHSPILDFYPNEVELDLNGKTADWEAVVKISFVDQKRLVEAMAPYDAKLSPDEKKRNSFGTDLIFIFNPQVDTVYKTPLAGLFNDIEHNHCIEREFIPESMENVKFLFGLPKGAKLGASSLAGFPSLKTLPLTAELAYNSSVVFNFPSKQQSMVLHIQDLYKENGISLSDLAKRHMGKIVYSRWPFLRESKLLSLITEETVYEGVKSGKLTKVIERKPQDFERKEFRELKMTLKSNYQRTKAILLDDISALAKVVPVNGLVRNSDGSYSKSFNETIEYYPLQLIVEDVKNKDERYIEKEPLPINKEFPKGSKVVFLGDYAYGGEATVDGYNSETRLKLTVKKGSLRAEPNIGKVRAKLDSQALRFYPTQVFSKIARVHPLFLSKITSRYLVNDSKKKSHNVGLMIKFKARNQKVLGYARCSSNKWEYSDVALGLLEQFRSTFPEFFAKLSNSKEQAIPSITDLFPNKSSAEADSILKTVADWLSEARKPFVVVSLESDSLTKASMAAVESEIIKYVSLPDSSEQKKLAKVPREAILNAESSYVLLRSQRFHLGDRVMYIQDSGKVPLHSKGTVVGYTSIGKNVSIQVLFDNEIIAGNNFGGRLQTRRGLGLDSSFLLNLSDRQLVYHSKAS
In words: EMSA. Conditions: nonspecific association, more readily competed by total yeast RNA; 5' triphosphate (Methods EMSA section prints pA-); EMSA: 10 mM Tris-HCl pH 7.5, 150 mM KCl, 1.5 mM MgCl2, 0.5 mM DTT, on ice 30 min, 5 pmol RNA with 2.5-7.5 pmol Xrn1, 6% gel in 0.5x TBE; recombinant protein; protein details: C-terminal 6xHis; label: 32P uniform; letters put together from the description. In general terms: A gel shift assay detects complexes by their altered migration in electrophoresis.

The mark [5] stands for this setting: WT lysate, selective for FAD over m7G bait, 5' m7GpppA cap.

For some of these results: The comparison behind a weaker result is the experiment's own reference, which may not be listed here. For some of these results: Protein sequences can lack the tags named with them. For some of these results: Construct, isoform or probe ends are uncertain for at least one entry. For some of these results: Where cells or extracts were used, other partners may take part. For some of these results: At least one verdict was read from the data and is not stated in words by the source. For some of these results: Whether high values mean tight binding is not given here for every scale.

For “AGUUGGUGGUUGUUGUGUGUUUGUGGUUGGUUUGUUUGGC [FAD-capped RNA, 3'-biotin]”, the binding result in series [1] (WT and xrn1 deletion lysates, MS identification, 5' FAD cap) is “binds”; in series [3] (WT, xrn1 deletion and rai1 deletion lysates, MS identification, 5' FAD cap), “binds”. In series [2] (5' FAD cap), the binding signal (spectral counts) is 676.
Take “AGUUGGUGGUUGUUGUGUGUUUGUGGUUGGUUUGUUUGGC [m7G-capped RNA, 3'-biotin]”: the binding result in series [1] (setting [5]) and in series [3] (setting [5]) was “binds more weakly” each time. In series [2] (5' m7GpppA cap), this sequence came in with a binding signal (spectral counts) of 74.
Consider “AGUUGGUGGUUGUUGUGUGUUUGUGGUUGGUUUGUUUGGC [triphosphate RNA (pppA-)]”, for which the binding result in series [4] is listed as “binds more weakly”.

Values taken from PMC9410882, “Identification of a novel deFADding activity in human, yeast and bacterial 5′ to 3′ exoribonucleases” (Nucleic Acids Research, 2022).
